Measurements reported in patent US20130131321A1, “LIGANDS FOR ANTIBODY AND Fc-FUSION PROTEIN PURIFICATION BY AFFINITY CHROMATOGRAPHY” (GRAFFINITY PHARMACEUTICALS GMBH, priority 2010, published 2013).

Tests used:
[1] = system: Bevacizumab spiked into host cell proteins; assay: Purification of antibody from cell culture supernatant, column chromatography; parameters: species or system humanized; conditions: Bevacizumab 0.05 mg ml^−1 in HCP, 100 column volumes, elution sodium citrate pH 3.0
[2] = system: Bevacizumab spiked into host cell proteins; assay: Purification of antibody from cell culture supernatant, microtiter plate chromatography; parameters: species or system humanized; conditions: Bevacizumab 0.05 mg ml^−1 in HCP, 25 column volumes, elution sodium citrate pH 3.0

**Q.** Which results are given for COc1ccc(NC(=O)c2cc(-c3ccco3)n(C)n2)cc1C(=O)NCCCN [Ligand L1, 5-[5-(2-Furyl)-1-methylpyrazol-3-yl]carboxamido-2-methoxybenzoic acid N-(3-aminopropyl)amide]?
**A.** Purity, Column Chromatography [1]: 83%; Yield, Column Chromatography [1]: 90%; Purity, Microtiter Plate Chromatography [2]: 74%; Yield, Microtiter Plate Chromatography [2]: 85%
